{"source": "patent US20140100248A1", "about": "“Novel Heterocyclic Compounds as Modulators of Sphingolipid Signaling and Uses Thereof” (UNIVERSITÄT BERN, priority 2011, published 2014)", "system": "nitric oxide (NO) formation", "experiment": "cytokine-triggered nitric oxide release from renal mesangial cells, Griess reagent", "format": "cell-based, rat", "settings": "1-100 nM", "method": "Cells were treated for 24 h with either vehicle (−) or with interleukin 1 β (1 nM) plus forskolin (10 μM) (IL-1/Fk, +) in the absence or presence of the indicated concentrations of ST-968 (in μM), or betamethasone (in nM). Thereafter, supernatants were collected and nitrite was quantified by using the Griess reagent.\nQuiescent mesangial cells in 24-well plates were stimulated as indicated, and the supernatants were taken for nitrite determination using Griess reagent as described (Green et al., 1982).", "note": "At least one compound was matched to its structure with a doubt left."}
{"molecule": "C[C@H]1C[C@H]2[C@@H]3CCC4=CC(=O)C=C[C@]4(C)[C@@]3(F)[C@@H](O)C[C@]2(C)[C@@]1(O)C(=O)CO", "note": "[betamethasone, reference compound]", "values": [{"measurement": "reduction of IL-1β/forskolin induced NO formation", "value": "reduction"}]}
